{"source": "patent US20220071952A1", "about": "“METHODS OF TREATING AND PREVENTING HEPATOTOXICITY” (Natreon, Inc., priority 2020, published 2022)", "tested_on": "alcohol-induced hepatotoxicity in mice", "assay": "Synergistic hepatoprotective activity of DBPs against alcohol-induced hepatotoxicity (Example IV)", "details": "with ethanol; Ursocol 250 mg/kg (Tables 17, 18); 1:5 ratio 12 and 60 mg/kg in Table 18, 60 mg/kg in Table 17", "note": "At least one compound was matched to its structure with a doubt left.", "data": [{"smiles": "C[C@H](CCC(=O)O)[C@H]1CC[C@H]2[C@@H]3[C@@H](O)C[C@@H]4C[C@H](O)CC[C@]4(C)[C@H]3CC[C@]12C", "note": "[Ursocol, ursodeoxycholic acid, reference compound]", "values": [{"measurement": "restoration of ALT and AST towards vehicle control levels", "result": "restored ALT and AST to approximately those levels shown for vehicle controls"}]}]}
